# From PubChem BioAssay AID504327 (National Center for Advancing Translational Sciences (NCATS), 2011)
# By UniProt entry, the sequences of proteins in these tests, tags left out.
# UniProt Q92830, whole entry, looked up: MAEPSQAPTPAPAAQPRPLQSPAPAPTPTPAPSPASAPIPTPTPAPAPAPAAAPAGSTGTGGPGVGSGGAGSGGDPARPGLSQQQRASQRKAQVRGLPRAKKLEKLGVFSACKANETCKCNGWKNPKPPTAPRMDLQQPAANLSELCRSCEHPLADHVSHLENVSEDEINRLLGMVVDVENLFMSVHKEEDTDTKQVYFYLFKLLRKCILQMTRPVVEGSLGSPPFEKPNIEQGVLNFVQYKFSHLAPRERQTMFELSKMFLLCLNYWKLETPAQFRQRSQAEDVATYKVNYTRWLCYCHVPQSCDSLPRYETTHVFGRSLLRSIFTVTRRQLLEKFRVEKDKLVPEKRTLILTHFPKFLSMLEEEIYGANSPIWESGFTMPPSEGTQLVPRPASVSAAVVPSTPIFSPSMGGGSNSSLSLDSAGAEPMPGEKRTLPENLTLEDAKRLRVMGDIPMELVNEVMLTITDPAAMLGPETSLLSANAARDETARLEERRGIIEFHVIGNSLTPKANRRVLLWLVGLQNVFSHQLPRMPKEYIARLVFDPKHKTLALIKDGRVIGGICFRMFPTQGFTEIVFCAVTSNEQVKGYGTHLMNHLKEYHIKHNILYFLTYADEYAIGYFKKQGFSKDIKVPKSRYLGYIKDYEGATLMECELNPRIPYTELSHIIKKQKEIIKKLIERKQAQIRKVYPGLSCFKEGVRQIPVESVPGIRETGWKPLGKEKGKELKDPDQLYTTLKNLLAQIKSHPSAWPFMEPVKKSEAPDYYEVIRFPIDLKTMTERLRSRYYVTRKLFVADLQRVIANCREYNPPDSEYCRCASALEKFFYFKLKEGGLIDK
# The whole screen tested about 390,000 compounds, of which about 820 (0.21%) were called active. The inconclusive results got no clear call from the source; some entries with a clear call stand among them for comparison. Calls come from the whole dose curve; as a rule, active = well fitted inhibition curve with a large enough effect; inconclusive = small, poorly fitted or top-dose-only effect, or another doubt; inactive = no such curve, though single readings can be large or run the other way. Potencies beside an inconclusive call are fits to weak or partial responses and may not hold up.
# Target: Histone acetyltransferase KAT2A (Homo sapiens) (UniProt Q92830)
# Experiment: qHTS Assay for Inhibitors of GCN5L2
# Conditions: GCN5L2 HAT assay, ThioGlo1 CoA-SH fluorescence; activity change, negative = inhibition: at 58.9 µM (top of the series) unless noted
# How it was run: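 GCN5L2 (20 nM) in 50mM HEPES pH 7.5, 0.1mM EDTA, 0.01% Tween-20 preincubated 15 min with compounds at room temperature. Reaction started with H3(1-25) 75uM, acetyl-CoA 70uM, ThioGlo1 50uM; CoA-thiol fluorescence (Ex340/Em540) read at 0 and 20 min.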
# % is set by controls: 0 for no effect and ±100 for the full control effect; potency is the fitted concentration of half-maximal effect.
Compound,"activity change, negative = inhibition",Potency
O=C(Nc1ccc(N2CCOCC2)c(S(=O)(=O)Nc2ccccc2Cl)c1)c1ccccc1,inactive: -7.47%,–
C[N+](C)(C)CCCCCC[N+](C)(C)C,–,inactive
Cc1ccc(S(=O)(=O)N2CCC3(CC2)OCCN3S(=O)(=O)c2c(C)cc(C)cc2C)cc1,inactive: -2.7%,–
COc1ccc(NC(=O)c2cc3c(=O)n(Cc4ccco4)ccc3nc2C)c(OC)c1,inactive: -22.1%,–
N#C/C(=N\Nc1cccc([N+](=O)[O-])c1)C(=O)c1ccc(Br)cc1,–,"inconclusive: 20 µM [inhibitor, partial curve, poor fit]"
CCOc1ccc(CCNC(=O)C2Cc3ccccc3N2C(=O)CC)cc1OCC (configuration not stated),inactive: 9.99%,–
Cc1ccc(-c2cc(C(=O)N3CCN(S(=O)(=O)c4ccc(Br)s4)CC3)[nH]n2)c(C)c1,inactive: -8.84%,–
CN(CC(=O)Nc1ccccc1Cl)C(=O)COC(=O)CCN1C(=O)C2CC=CCC2C1=O (configuration not stated),–,"inconclusive: 35.5 µM [inhibitor, single point]"
COc1ccc(-c2c(C)oc3c(CN4CCN(C)CC4)c(O)ccc3c2=O)cc1,–,"inconclusive: 39.8 µM [inhibitor, single point]"
COc1cccc(CNC(=O)Cc2ccc(-c3ccccc3)cc2)c1,inactive: -2.78%,–
O=c1ccc2ccc(O)cc2o1,–,"inconclusive: 39.8 µM [inhibitor, single point]"
COc1ccc(N2CCN(Cc3nc4c(c(=O)[nH]c(=O)n4C)n3Cc3ccccc3)CC2)cc1,inactive: 0.949%,–
Cc1nn(-c2ccccc2)c(Cl)c1/C=N\NC(=O)c1cncc(Br)c1,–,"inconclusive: 39.8 µM [inhibitor, single point]"
CCc1c(C)nc(SCC(=O)NNC(=O)Cc2ccc(OC)cc2)[nH]c1=O,–,"inconclusive: 17.8 µM [inhibitor, single point]"
N#Cc1c(NC(=O)C2CC2)sc2c1CCCCC2,inactive: -8.42%,–
O=C(NCC1CCCO1)c1cc(-c2ccco2)nc2ccccc12 (configuration not stated),–,"inconclusive: 35.5 µM [inhibitor, single point]"
COc1cccc(Cn2c(=O)c(-c3cccs3)nc3cnc(N4CCNCC4)nc32)c1,–,"inconclusive: 39.8 µM [inhibitor, single point]"
Cc1oncc1C(=O)Nc1ccc(C(F)(F)F)cc1,–,"inconclusive: 39.8 µM [inhibitor, single point]"
Cc1ccc2c(c1)N(Cc1cccc(F)c1)C(=O)C(C)O2 (configuration not stated),–,"inconclusive: 7.08 µM [inhibitor, single point]"
Cc1ccc(S(=O)(=O)N2CCN(C(=O)CC(C)C)CC2)cc1,inactive: -1.76%,–
CCC(CO)Oc1cc(NCc2cccc(C(F)(F)F)c2)c2ncn(C(C)C)c2c1 (configuration not stated),inactive: -0.132%,–
COc1ccccc1NS(=O)(=O)c1cc(NC(=O)C2CC2)ccc1N1CCOCC1,–,"inconclusive: 22.4 µM [inhibitor, partial curve]"
COc1ccc(C(=O)Nc2ccnn2C2CCN(Cc3cnn(C)c3)CC2)cc1,inactive: -1.87%,–
O=[N+]([O-])c1ccc(C(c2sc3nc(-c4ccco4)nn3c2O)N2CCC3(CC2)OCCO3)cc1 (configuration not stated),inactive: -4.9%,–

Compound,"activity change, negative = inhibition",Potency
CCn1c(SCC(=O)N2CCCC2)nc2c(c1=O)SC(C)C2 (configuration not stated),–,"inconclusive: 39.8 µM [inhibitor, single point]"
Cc1ccc2[nH]c(C(F)(F)F)cc(=O)c2c1,–,"inconclusive: 39.8 µM [inhibitor, single point]"
Cc1cc(NC(=O)CSc2nnnn2C)n(-c2ccccc2)n1,–,"inconclusive: 39.8 µM [inhibitor, single point]"
CCOc1ccc(NC(=S)NNC(=S)Nc2cccc(C(F)(F)F)c2)cc1,–,"inconclusive: 28.2 µM [inhibitor, single point]"
Cc1ccc(S(=O)(=O)N(C)C)cc1NC(=O)COC(=O)/C=C/c1ccc(F)cc1,–,"inconclusive: 0.1 µM [inhibitor, full curve, poor fit]"
Cc1cccc(CCNCc2c(C(=O)O)c(C)n(-c3ccccc3)c2C)c1,–,"inconclusive: 7.94 µM [inhibitor, partial curve, poor fit]"
COc1ccc(N2CC(NC(=O)c3ccc(S(=O)(=O)N4CCOCC4)cc3)CC2=O)cc1 (configuration not stated),inactive: 4.18%,–
CC1=NN(C(=O)c2ccc(C)cc2)C(O)(C(F)(F)OC(F)(F)F)C1 (configuration not stated),–,"inconclusive: 0.794 µM [inhibitor, single point]"
O=C(c1ccc([N+](=O)[O-])o1)N1CCN(c2nc3c(Cl)cccc3s2)CC1,inactive: -23.5%,–
CCc1cccc(CC)c1NC(=O)CSc1nc2ccc(N3C(=O)C4C5C=CC(C5)C4C3=O)cc2s1 (configuration not stated),inactive: -24.5%,–
O=C(O)Cn1nc(N2CCN(c3ccccc3)CC2)ccc1=O,inactive: -1.58%,–
Cc1csc2c(N3CCN(C(=O)Nc4ccc(Cl)c(Cl)c4)CC3)ncnc12,–,"inconclusive: 10 µM [inhibitor, partial curve, poor fit]"
COc1ccc(NC(C)=O)cc1NS(=O)(=O)c1cn(C)c(=O)n(C)c1=O,–,"inconclusive: 0.891 µM [inhibitor, single point]"
COc1ccc(OCC(=O)N/N=C/c2ccc(OC)c(OC)c2C(=O)O)cc1,inactive: 31.7%,–
CCOc1ccc(-c2csc(/C(C#N)=C\c3ccc(O)c([N+](=O)[O-])c3)n2)cc1,–,"inconclusive: 14.1 µM [inhibitor, partial curve]"
CCc1ccc(S(=O)(=O)c2cnc(SCC(=O)Nc3ccc(OC)cc3OC)[nH]c2=O)cc1,inactive: -3.07%,–
O=S(=O)(NC1CCCCC1Sc1ncccn1)c1ccc(Cl)cc1 (configuration not stated),–,"inconclusive: 8.91 µM [inhibitor, single point]"
COc1ccccc1CCNC(=O)Cc1c(C)c2cc3c(C)coc3cc2oc1=O,inactive: -0.386%,–
COc1ccc(NC(=O)Cn2ncc(Cl)c(Cl)c2=O)cc1S(=O)(=O)N1CCOCC1,–,"inconclusive: 15.8 µM [inhibitor, partial curve]"
O=S(=O)(NCc1cn2ccccc2n1)c1cccs1,–,"inconclusive: 39.8 µM [inhibitor, single point]"
Cc1cnc(CNc2ncncc2-c2ccccc2C(F)(F)F)cn1,inactive: 2.02%,–
CC(/C=C1\SC(=S)N(CCC(=O)Nc2ccccc2O)C1=O)=C\c1ccccc1,–,"inconclusive: 20 µM [inhibitor, partial curve, poor fit]"
Cc1ccc(NC(=O)CSc2nc(NS(=O)(=O)c3ccc(C)cc3)cc(=O)[nH]2)cc1,–,"inconclusive: 39.8 µM [inhibitor, single point]"
CCCc1cc(=O)oc2cc(C)cc(OCC(=O)NC(Cc3ccc(Cl)cc3)C(=O)O)c12 (configuration not stated),–,"inconclusive: 0.708 µM [inhibitor, partial curve, poor fit]"

Compound,"activity change, negative = inhibition",Potency
CCOC(=O)Cn1c(=O)oc2cc(S(=O)(=O)N3CCC(C(=O)OCC)CC3)ccc21,inactive: -3.6%,–
COC(=O)c1nc(NC(=O)c2ccccc2)n[nH]1,–,"inconclusive: 0.891 µM [inhibitor, full curve, poor fit]"
CSc1ccc(/C=C2\C(=N)N3N=C(CC(=O)N4CCOCC4)SC3=NC2=O)cc1,–,"inconclusive: 1.58 µM [inhibitor, partial curve]"
CCCOC(=O)Nc1nc2ccccc2o1,inactive: 1.37%,–
Cc1nn(Cc2ccc(Cl)cc2Cl)c(C)c1NC(=O)NC12CC3CC(CC(C3)C1)C2,inactive: -10.2%,–
Cc1ccc(/C=C/C(=O)N2CCN(Cc3ccccc3)CC2)o1,inactive: -5.26%,–
CC(C)Cn1c(N)c(C(=O)COC(=O)/C=C/c2ccccc2)c(=O)n(C)c1=O,inactive: -2.86%,–
Cc1ccc(N(C)C(=O)CCS(=O)(=O)c2cc3c(cc2Cl)NC(=O)CO3)cc1,–,"inconclusive: 3.16 µM [inhibitor, single point]"
COc1ccccc1CN1CC(C(=O)NCCc2ccc(C)o2)CCC1=O (configuration not stated),inactive: -7.18%,–
CCc1ccc(-c2c(C)sc(NC(C)=O)c2C(N)=O)cc1,–,"inconclusive: 0.891 µM [inhibitor, single point]"
NC(=O)Nc1ccc(C(=O)OCC(=O)Nc2cccc(S(=O)(=O)NC3=NCCCCC3)c2)cc1,–,"inconclusive: 8.91 µM [inhibitor, single point]"
Cc1ccc(Nc2nc(NCc3ccco3)c3ccccc3n2)cc1,inactive: -10.5%,–
COc1cc2c(cc1OC)C(C(C)C)=NC(C)(C)C2,–,"inconclusive: 39.8 µM [inhibitor, single point]"
CC(CC(F)(F)F)N1CCC(n2nccc2NC(=O)CCCc2ccccc2)CC1 (configuration not stated),–,"inconclusive: 35.5 µM [inhibitor, single point]"
CCOC(=O)C(C)Oc1c(Br)cc(C2NC(=O)NC(C)=C2C(C)=O)cc1OCC (configuration not stated),inconclusive: -103% [inhibitor] [at 0.501 µM],–
COc1ccc(Cl)cc1NC(=O)c1cc2c(=O)n3ccccc3nc2s1,–,active: 35.5 µM
CCCc1cc(=O)oc2cc(C)cc(OCC(=O)NCc3ccccn3)c12,inactive: -6.74%,–
CCCCn1nc2cc(C(=O)NCc3ccccc3)ccc2c1OCC,–,"inconclusive: 39.8 µM [inhibitor, single point]"
CS(=O)(=O)N1CCN(c2ccccc2NC(=O)c2ccc(Br)o2)CC1,–,active: 31.6 µM
Cc1ccc(-n2nc(-c3ccccc3)cc2Nc2ccccc2N)cc1,inactive: -3.5%,–
Cc1nc(/C(N)=N/OC(=O)c2cccc(Cl)c2)c(C(F)(F)F)o1,–,"inconclusive: 39.8 µM [inhibitor, single point]"
COc1ccccc1C1c2c(-c3ccc(Cl)cc3)n[nH]c2C(=O)N1c1ccc(C)cc1 (configuration not stated),inactive: -17.5%,–
O=C(Nc1ccc(Br)cc1)NC1CCCCCCC1,–,"inconclusive: 7.94 µM [inhibitor, partial curve, poor fit]"
CCOC(=O)c1c(C)n(CC(COC(C)=O)OC(C)=O)c2ccc(OC(C)=O)cc12 (configuration not stated),–,"inconclusive: 39.8 µM [inhibitor, single point]"

# Taken from above.
# Value of Cc1ccc(Nc2nc(NCc3ccco3)c3ccccc3n2)cc1 under activity change, negative = inhibition: inactive: -10.5%
# Value of CC(/C=C1\SC(=S)N(CCC(=O)Nc2ccccc2O)C1=O)=C\c1ccccc1 under Potency: inconclusive: 20 µM [inhibitor, partial curve, poor fit]
# Value of Cc1csc2c(N3CCN(C(=O)Nc4ccc(Cl)c(Cl)c4)CC3)ncnc12 under Potency: inconclusive: 10 µM [inhibitor, partial curve, poor fit]
